Reference: PubChem BioAssay AID2685 (National Center for Advancing Translational Sciences (NCATS), 2010)
The other results are listed elsewhere or left out. These are further read-outs of the screen, such as a control signal, another cell line or another target. No call is given for them. The list favours compounds with an active or inconclusive main result. The note in brackets gives the kind of curve behind each potency; many fits are weak.

Assay: qHTS Assay for Lipid Storage Modulators in Drosophila S3 Cells;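 on cell number change: cells counted by Cell Tracker Red CMTPX staining in the red channel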
Conditions: BODIPY lipid droplet fluorescence, 18-24 h; for cell number change: measured here: cell count max response, cells fed with added oleic acid
Method in brief: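 Drosophila S3 cells loaded with oleic acid (400 uM, as added) and compounds at several concentrations; lipid droplets imaged by 488-nm laser-scanning cytometry, 500–530 nm intensity and object ratio to cell channel. Percent activity normalized to 20 uM Triacsin C.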

[1] = measured here: cell number channel AC50, cells fed with added oleic acid
[2] = measured here: lipid fluorescence (Fed channel) AC50, cells fed with added oleic acid

Row | Compound | cell number change [%] | AC50 [1] | AC50 [2]
1 | O=C(O)c1cccc(-c2ccc(/C=N/n3cnc4sc5c(c4c3=O)CCCC5)o2)c1 | 34.9 | 13000 nM [rising, single point] | 23100 nM [rising, single point]
2 | O=C(CSc1nc(=O)n2ccccc2n1)NCc1ccccc1 | -9.64 | – | –
3 | Cn1cccc1C(C(=O)NC1CCCCC1)N(C(=O)Cc1cccs1)C1CC1 (stereo unspecified) | -10.6 | 130 nM [rising, full curve, poor fit] | 366 nM [falling, partial curve, poor fit]
4 | O=S(=O)(c1ccccc1)N(Cc1ccccn1)Cc1ccccn1 | -49.3 | 29100 nM [falling, single point] | –
5 | Cc1c(NS(=O)(=O)c2ccc(N3CCN(C)CC3)c([N+](=O)[O-])c2)c(=O)n(-c2ccccc2)n1C | -49.3 | 3260 nM [falling, partial curve] | 2060 nM [falling, partial curve]
6 | Cc1[nH]c2ccc(C(=O)OCCN(C)C)cc2c1C | – | 1640 nM [rising, partial curve] | –
7 | O=C(Cc1ccccc1)N1CCN(c2ncccn2)CC1 | 0.371 | – | 2910 nM [rising, single point]
8 | OCC1(Cc2ccccc2)CCCN(Cc2ccn[nH]2)C1 (stereo unspecified) | 8.28 | – | –
9 | O=c1oc(-c2ccco2)nc2c1cnn2-c1ccccc1 | 131 | 580 nM [rising, single point] | 580 nM [rising, single point]
10 | COc1cccc(NC(=O)COC(=O)c2c(C)nn(-c3ccccc3)c2C)c1 | 16.2 | – | 92 nM [rising, full curve, poor fit]
11 | COc1cc(C(=O)OCC(=O)NC2CCCCC2)cc2c1OCCO2 | 6.49 | – | 20600 nM [rising, single point]
12 | CC(C)COc1ccc(C(=O)OCCN2CCOCC2)cc1 | -10.5 | – | 1640 nM [rising, full curve]
13 | CNC(=O)c1cn(-c2ccc(Cl)cc2)c(=O)c2ccccc12 | -30 | 164 nM [falling, full curve, poor fit] | 366 nM [falling, partial curve, poor fit]
14 | COC(=O)[C@H]1C2CCC(C(=O)OC)(CC2)[C@H]1C(=O)OC | – | – | 130 nM [falling, full curve, poor fit]
15 | Cc1cc(NC(=O)CCN2CC(C)OC(C)C2)ccc1Br (stereo unspecified) | -22.8 | – | 6510 nM [rising, single point]
16 | COc1cccc(NC(=O)C2CC(=O)N(C)C(=Nc3cccc(F)c3)S2)c1 (stereo unspecified) | -1.64 | – | –
17 | CCOC(=O)c1c(NC(=O)CSc2ncn[nH]2)sc(C(C)=O)c1C | 17 | – | –
18 | COc1ccccc1NC(=O)CSc1nccn1Cc1ccc(F)cc1 | 30.1 | 11600 nM [rising, single point] | 7310 nM [rising, partial curve]

Row | Compound | cell number change [%] | AC50 [1] | AC50 [2]
19 | O=C(NCc1cc(C(F)(F)F)cc(C(F)(F)F)c1)C1CC(c2ccccc2C(F)(F)F)=NO1 (stereo unspecified) | -18 | – | 29100 nM [falling, partial curve, poor fit]
20 | O=C(/C=C/c1ccccc1Cl)N(Cc1cccs1)C1CCS(=O)(=O)C1 (stereo unspecified) | 19.1 | – | –
21 | CC(C)c1ccc(S(=O)(=O)c2cn(Cc3ccc(F)cc3)c3cc4c(cc3c2=O)OCO4)cc1 | – | 1640 nM [falling, partial curve] | 1840 nM [rising, partial curve, poor fit]
22 | CCOc1ccc(NC(=O)COc2ccc(C(=O)N3CCC(C(N)=O)CC3)cc2OC)cc1 | 3.85 | – | 580 nM [rising, full curve]
23 | CC(=O)NCCC(=O)Nc1nc2ccc(Oc3ccccc3)cc2s1 | 12.2 | – | 29100 nM [falling, partial curve, poor fit]
24 | Cc1nn(CCCC(=O)Nc2sc3c(c2C#N)CCC3)c(C)c1[N+](=O)[O-] | – | 146 nM [rising, single point] | 651 nM [rising, partial curve, poor fit]
25 | O=C(N/C(=N\O)c1ccccc1)Nc1ccc(Cl)cc1 | 129 | 6510 nM [rising, partial curve] | 29100 nM [rising, single point]
26 | Cc1cc(C)cc(C(=O)Oc2coc(CSc3nnc(NC(=O)C4CC4)s3)cc2=O)c1 | 4.3 | – | –
27 | COc1cccc(OCC(=O)Nc2cc(NC(=O)COc3cccc(OC)c3)cc(C(=O)O)c2)c1 | 6.93 | – | 4610 nM [rising, partial curve]
28 | COc1ccc(C(=O)NCc2nnc(SCC(=O)N3CCCCC3)o2)cc1OC | – | 4110 nM [rising, partial curve, poor fit] | 2910 nM [rising, partial curve]
29 | COc1ccc(CCN2C(=O)N(c3ccc(OC)cc3)C(=O)C2CC(=O)Nc2ccc(OC)cc2)cc1 (stereo unspecified) | 17.1 | – | –
30 | O=C(CSc1ccc2nnc(-c3ccncc3)n2n1)NCc1ccco1 | – | – | 2910 nM [rising, partial curve]
31 | O=C(c1ccc(Cl)c([N+](=O)[O-])c1)N1CCN(c2ccccn2)CC1 | 34 | 16400 nM [rising, single point] | 29100 nM [rising, single point]
32 | COc1ccc(Cl)cc1NC(=O)CSc1nncn1-c1cccnc1 | 7.85 | 2910 nM [rising, partial curve] | 2590 nM [rising, partial curve]
33 | CSc1ncc(Cl)c(C(=O)Nc2ccc(S(=O)(=O)N3CCOCC3)cc2)n1 | -30.8 | – | 4.61 nM [rising, full curve, poor fit]
34 | O=[N+]([O-])c1cccc(-c2cc(-c3cc(Br)ccc3O)[nH]n2)c1 | 10.9 | 5.17 nM [rising, full curve, poor fit] | 5.17 nM [rising, full curve, poor fit]
35 | CSCCC(NS(=O)(=O)c1ccc(C)cc1)C(=O)N1CCN(S(=O)(=O)c2ccc(F)cc2)CC1 (stereo unspecified) | -25 | 820 nM [falling, full curve, poor fit] | 13000 nM [falling, partial curve]

2 of the compounds above, with tabs.
Row	Compound	cell number change [%]	AC50 [1]	AC50 [2]
20	O=C(/C=C/c1ccccc1Cl)N(Cc1cccs1)C1CCS(=O)(=O)C1 (stereo unspecified)	19.1	–	–
21	CC(C)c1ccc(S(=O)(=O)c2cn(Cc3ccc(F)cc3)c3cc4c(cc3c2=O)OCO4)cc1	–	1640 nM [falling, partial curve]	1840 nM [rising, partial curve, poor fit]
